Measurements published in PubChem BioAssay.
The other results are listed elsewhere or left out. These are further read-outs of the screen, such as a control signal, another cell line or another target. No call is given for them. For part of these data: The list favours compounds with an active or inconclusive main result.

experiment: selective SMN2 exon splicing luciferase activators – cell-based, SMN2/SMN1 luciferase reporters (AID 1598); settings: SMN2 vs SMN1 luciferase splicing reporter cells, at 10 µM; SMN1 luciferase ratio: measured here: SMN1 luciferase reporter average; SMN2 luciferase ratio: measured here: SMN2 luciferase reporter average, stronger effect = higher value

SMILES | SMN2 luciferase ratio | SMN1 luciferase ratio
CCN1CCCC(OC(=O)C(c2ccccc2)c2ccccc2)C1 (stereo not given) | 0.88 | 0.81
CC[C@]12CCCN3CCc4c(n(c5ccccc45)C(=O)C1)[C@@H]32 | 1.09 | 1.04
CC(C)Oc1ccc2c(=O)cc(-c3ccccc3)oc2c1 | 1.15 | 1.28

experiment: rescue of PC12 cells from polyQ htt toxicity – LDH release (AID 1610); settings: PC12 mutant huntingtin toxicity, final LDH at 4 uM, stronger effect = lower value

SMILES | normalised LDH release
CCN(CC)CCCC(C)Nc1c2ccc(Cl)cc2nc2ccc(OC)cc12 (stereo not given) | 1.05
NC(=NCCCCCCN=C(N)/N=C(\N)Nc1ccc(Cl)cc1)/N=C(\N)Nc1ccc(Cl)cc1 | 0.796
C=CCSCC1Nc2cc(Cl)c(S(N)(=O)=O)cc2S(=O)(=O)N1 (stereo not given) | 0.909
NC(N)=NC(=O)c1nc(Cl)c(N)nc1N | 0.801
CC1(C)OC(=O)NC1=O | 0.934
C#C[C@]1(O)CCC2C3CCC4=CC(=O)CC[C@@H]4C3CC[C@@]21CC (stereo not given in full) | 0.883
N[C@H](Cc1ccccc1)C(=O)O | 0.527
COc1c2occc2c(OC)c2c(=O)cc(C)oc12 | 0.989
NC(COCc1ccccc1)C(=O)O (stereo not given) | 0.916
Cc1ccc(C(C)C)cc2c(C)ccc1-2 | 0.965
CC(C)[N+](C)(CCOC(=O)C1c2ccccc2Oc2ccccc21)C(C)C | 0.959
C[C@@H]1OC(Oc2c(-c3ccc(O)c(O)c3)oc3cc(O)cc(O)c3c2=O)[C@H](O)[C@H](O)[C@H]1O (stereo not given in full) | 1.07
Cc1c(NC(C)C)c(=O)n(-c2ccccc2)n1C | 0.783
Nc1ccc(S(=O)(=O)Nc2ccnn2-c2ccccc2)cc1 | 0.896
C[N+]1(C)C2CC(OC(=O)[C@@H](CO)c3ccccc3)CC1C1OC12 (stereo not given in full) | 0.337
CCC(Cc1c(I)cc(I)c(N)c1I)C(=O)O (stereo not given) | 1.22
O=C(O)c1cc(O)ccc1O | 1.06
CCN(CC)CCCC(C)Nc1ccnc2cc(Cl)ccc12 (stereo not given) | 1.06
CC1=C(/C=C/C(C)=C/C=C/C(C)=C/CO)C(C)(C)CCC1 | 1.2
c1ccc2[nH]c(-c3cscn3)nc2c1 | 0.666

SMILES | normalised LDH release
CC(C)OC(=O)C(C)(C)Oc1ccc(C(=O)c2ccc(Cl)cc2)cc1 | 0.869
CCN1CCCC1CNC(=O)c1cc(S(N)(=O)=O)ccc1OC (stereo not given) | 0.705
COc1ccccc1OCC(O)COC(N)=O (stereo not given) | 0.94
CCC1(C)CC(=O)NC1=O (stereo not given) | 0.697
CN1CCN(C2=Nc3cc(Cl)ccc3Nc3ccccc32)CC1 | 0.988
C#C[C@]1(O)CCC2C3CCC4=Cc5oncc5C[C@]4(C)C3CC[C@@]21C (stereo not given in full) | 1.05
CC12CC3CC(C)(C1)CC(N)(C3)C2 | 0.753
CCc1cc(C(N)=S)ccn1 | 1.05
O=c1c(-c2ccc(O)cc2)coc2cc(O)ccc12 | 1.05
O=C(O)c1cccnc1C(=O)O | 0.843
COc1cc(OC)c2ccc(=O)oc2c1 | 1.28
CC(C)NCC(O)c1ccc(O)c(O)c1 (stereo not given) | 1.11
CC(C)NCC(O)COc1ccc(CC(N)=O)cc1 (stereo not given) | 0.902
COC(=O)C(N)CS (stereo not given) | 0.876
C[C@]12C=CC(=O)C=C1CCC1C3C[C@@H](O)[C@](O)(C(=O)CO)[C@@]3(C)C[C@H](O)[C@@]12F (stereo not given in full) | 0.343
O=C(O)c1cc(=O)c2c(OCC(O)COc3cccc4oc(C(=O)O)cc(=O)c34)cccc2o1 | 1.02
CCN1CCCC(OC(=O)C(c2ccccc2)c2ccccc2)C1 (stereo not given) | 0.912
CC[C@]12CCCN3CCc4c(n(c5ccccc45)C(=O)C1)[C@@H]32 | 0.789
CC(C)Oc1ccc2c(=O)cc(-c3ccccc3)oc2c1 | 0.905

Another view of part of the listing above:

| SMILES | normalised LDH release |
| --- | --- |
| CN1CCN(C2=Nc3cc(Cl)ccc3Nc3ccccc32)CC1 | 0.988 |
| COc1cc(OC)c2ccc(=O)oc2c1 | 1.28 |
